Measurements reported in PubChem BioAssay AID743121 (NCATS, 2013).

Aim: 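Partners whose loss is lethal together with topoisomerase I blockade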 (primary screen)
Cell system: MDA-MB-231 cells, a human breast cancer line
Reagents: single siRNA against human genes, 20 nM siRNA (0.8 pmol per well)
Time to read-out: 120 h (drug added 48 h after transfection, read 72 h later)
Treatment: camptothecin 20 nM (about EC30) for 72 h; vehicle 0.1% DMSO in parallel plates
Detection: 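CellTiter-Glo ATP signal, scaled to control siRNA as percent viability; sensitisation given as log2 of untreated divided by camptothecin-treated viability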
Scale: log2 vehicle/camptothecin viability: higher = stronger sensitisation to camptothecin; viability with camptothecin and viability without drug: higher = more viable cells
Active means: 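Each gene scored by redundant siRNA activity (RSA) over its individual siRNA ratios; a gene is called active at p < 0.001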
Shown is an unselected part of about 26,000 deposited reagents. 167 of all reagents (0.63%) count as active. 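Calls are per gene from RSA p-values that are not deposited; an individual active-marked siRNA can sensitise only weakly.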 Unmarked entries are inactive. The numbers tell different reagents against one gene apart.

no.	Target gene	reagent	log2 vehicle/camptothecin viability	viability with camptothecin (% of control)	viability without drug (% of control)
1	SLIT2	1	-0.143	97.5	88.3
2	SLIT2	2	0.0487	84.7	87.6
3	SLIT2	3	-0.34	102	80.7
4	SLIT2	4	0.0693	95.7	100
5	TCF15	1	0.0844	42.5	45.1
6	TCF15	2	0.165	36.9	41.4
7	TCF15	3	-0.0511	106	102
8	TCF15	4	-0.261	19.3	16.1
9	IMPG1	1	0.0534	83.7	86.8
10	IMPG1	2	0.0166	15.9	16.1
11	IMPG1	3	1.84	11.6	41.5
12	IMPG1	4	0.000762	37.5	37.5

Single entries from above:
Value of TCF15 #3 in “viability with camptothecin (% of control)”: 106
IMPG1 #4, viability with camptothecin (% of control) → 37.5

The listing continues.
no.	Target gene	reagent	log2 vehicle/camptothecin viability	viability with camptothecin (% of control)	viability without drug (% of control)
13	KRAS	1	-0.574	46	30.9
14	KRAS	2	-0.0152	85.7	84.8
15	KRAS	3	-0.647	93.4	59.6
16	GMPR2	1	0.0132	44.6	45
17	GMPR2	2	0.0796	40.5	42.8
18	GMPR2	3	-0.358	89.2	69.6
19	GMPR2	4	-0.0973	39.2	36.7
20	PLA2G1B	1	-0.053	73.8	71.1
21	PLA2G1B	2	-0.0239	106	104
22	PLA2G1B	3	-0.242	82.6	69.9
23	PLA2G1B	4	0.157	65.9	73.5
24	ROR2	1	-0.213	58.9	50.9
25	ROR2	2	0.0542	66.8	69.3
26	ROR2	3	-0.0755	75.6	71.8
27	ROR2	4	-0.05	35	33.8
28	CSNK2A1	1	-0.378	66.5	51.2
29	CSNK2A1	2	0.121	54.8	59.6
30	CSNK2A1	3	-0.0365	102	99.9
31	CSNK2A1	4	-0.362	61.4	47.8
